Measurements reported in US20100056764A1.
These are yes or no findings as the source states them, for the method shown. Some results given as binding are weak or reduced against the parent protein; the word gives no strength. Where a sequence is shown, tags or fusion partners need not be part of it.

Sequences of proteins named here, by UniProt entry; tags and fusion partners are left off. A change or cut given only in a name is not applied to a line headed by its entry.
UniProt P26718: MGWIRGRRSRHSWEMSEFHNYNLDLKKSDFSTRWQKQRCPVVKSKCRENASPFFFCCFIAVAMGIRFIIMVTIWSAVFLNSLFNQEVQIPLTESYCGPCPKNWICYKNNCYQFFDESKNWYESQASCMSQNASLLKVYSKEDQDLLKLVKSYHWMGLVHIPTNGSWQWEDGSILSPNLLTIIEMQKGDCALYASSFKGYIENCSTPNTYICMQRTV

Target: human NKG2D (hNKG2D) on the cell surface (human) (UniProt P26718)
Experiment: flow cytometry, MICA-mFc on NKG2D/DAP10-expressing BaF/3 cells, with and without pre-incubation with an unnamed human anti-NKG2D hybridoma supernatant

binding: binds
B1: MICA-mFc (MICA fused to murine Fc) (Fc fusion, UniProt Q29983 24-307, looked up, not shown: a dimerising Fc or GST)
chain: EPHSLRYNLTVLSWDGSVQSGFLTEVHLDGQPFLRCDRQKCRAKPQGQWAEDVLGNKTWDRETRDLTGNGKDLRMTLAHIKDQKEGLHSLQEIRVCEIHEDNSTRSSQHFYYDGELFLSQNLETKEWTMPQSSRAQTLAMNVRNFLKEDAMKTKTHYHAMHADCLQELRRYLKSGVVLRRTVPPMVNVTRSEASEGNITVTCRASGFYPWNITLSWRQDGVSLSHDTQQWGDVLPDGNGTYQTWVATRICQGEEQRFTCYMEHSGNHSTHPVPSGKVLVLQSHW
